The record followed here is the supplement of paper PMC11732987, “Enantioselective OTUD7B fragment discovery through chemoproteomics screening and high-throughput optimisation” (Communications Chemistry, 2025).

The chains behind the UniProt entries cited, without tags or fusion partners. Where a name states a change or a piece, a line headed by the entry shows the natural chain unless it says otherwise.
UniProt Q96CM8: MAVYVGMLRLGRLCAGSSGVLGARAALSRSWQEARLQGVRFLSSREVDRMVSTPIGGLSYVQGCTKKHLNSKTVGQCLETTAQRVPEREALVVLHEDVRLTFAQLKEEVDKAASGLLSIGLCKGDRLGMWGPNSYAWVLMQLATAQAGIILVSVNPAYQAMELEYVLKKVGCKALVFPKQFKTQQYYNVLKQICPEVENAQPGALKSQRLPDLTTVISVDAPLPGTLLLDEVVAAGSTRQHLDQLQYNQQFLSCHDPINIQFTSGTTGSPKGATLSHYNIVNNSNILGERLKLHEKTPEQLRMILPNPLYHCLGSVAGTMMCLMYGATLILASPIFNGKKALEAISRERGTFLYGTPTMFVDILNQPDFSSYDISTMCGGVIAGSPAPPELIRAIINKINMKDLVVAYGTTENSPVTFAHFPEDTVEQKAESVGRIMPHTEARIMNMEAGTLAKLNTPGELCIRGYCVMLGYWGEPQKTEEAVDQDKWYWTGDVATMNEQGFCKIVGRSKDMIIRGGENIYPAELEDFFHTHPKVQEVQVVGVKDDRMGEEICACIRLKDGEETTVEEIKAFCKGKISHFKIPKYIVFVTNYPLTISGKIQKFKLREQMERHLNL
UniProt Q99996, whole entry, looked up: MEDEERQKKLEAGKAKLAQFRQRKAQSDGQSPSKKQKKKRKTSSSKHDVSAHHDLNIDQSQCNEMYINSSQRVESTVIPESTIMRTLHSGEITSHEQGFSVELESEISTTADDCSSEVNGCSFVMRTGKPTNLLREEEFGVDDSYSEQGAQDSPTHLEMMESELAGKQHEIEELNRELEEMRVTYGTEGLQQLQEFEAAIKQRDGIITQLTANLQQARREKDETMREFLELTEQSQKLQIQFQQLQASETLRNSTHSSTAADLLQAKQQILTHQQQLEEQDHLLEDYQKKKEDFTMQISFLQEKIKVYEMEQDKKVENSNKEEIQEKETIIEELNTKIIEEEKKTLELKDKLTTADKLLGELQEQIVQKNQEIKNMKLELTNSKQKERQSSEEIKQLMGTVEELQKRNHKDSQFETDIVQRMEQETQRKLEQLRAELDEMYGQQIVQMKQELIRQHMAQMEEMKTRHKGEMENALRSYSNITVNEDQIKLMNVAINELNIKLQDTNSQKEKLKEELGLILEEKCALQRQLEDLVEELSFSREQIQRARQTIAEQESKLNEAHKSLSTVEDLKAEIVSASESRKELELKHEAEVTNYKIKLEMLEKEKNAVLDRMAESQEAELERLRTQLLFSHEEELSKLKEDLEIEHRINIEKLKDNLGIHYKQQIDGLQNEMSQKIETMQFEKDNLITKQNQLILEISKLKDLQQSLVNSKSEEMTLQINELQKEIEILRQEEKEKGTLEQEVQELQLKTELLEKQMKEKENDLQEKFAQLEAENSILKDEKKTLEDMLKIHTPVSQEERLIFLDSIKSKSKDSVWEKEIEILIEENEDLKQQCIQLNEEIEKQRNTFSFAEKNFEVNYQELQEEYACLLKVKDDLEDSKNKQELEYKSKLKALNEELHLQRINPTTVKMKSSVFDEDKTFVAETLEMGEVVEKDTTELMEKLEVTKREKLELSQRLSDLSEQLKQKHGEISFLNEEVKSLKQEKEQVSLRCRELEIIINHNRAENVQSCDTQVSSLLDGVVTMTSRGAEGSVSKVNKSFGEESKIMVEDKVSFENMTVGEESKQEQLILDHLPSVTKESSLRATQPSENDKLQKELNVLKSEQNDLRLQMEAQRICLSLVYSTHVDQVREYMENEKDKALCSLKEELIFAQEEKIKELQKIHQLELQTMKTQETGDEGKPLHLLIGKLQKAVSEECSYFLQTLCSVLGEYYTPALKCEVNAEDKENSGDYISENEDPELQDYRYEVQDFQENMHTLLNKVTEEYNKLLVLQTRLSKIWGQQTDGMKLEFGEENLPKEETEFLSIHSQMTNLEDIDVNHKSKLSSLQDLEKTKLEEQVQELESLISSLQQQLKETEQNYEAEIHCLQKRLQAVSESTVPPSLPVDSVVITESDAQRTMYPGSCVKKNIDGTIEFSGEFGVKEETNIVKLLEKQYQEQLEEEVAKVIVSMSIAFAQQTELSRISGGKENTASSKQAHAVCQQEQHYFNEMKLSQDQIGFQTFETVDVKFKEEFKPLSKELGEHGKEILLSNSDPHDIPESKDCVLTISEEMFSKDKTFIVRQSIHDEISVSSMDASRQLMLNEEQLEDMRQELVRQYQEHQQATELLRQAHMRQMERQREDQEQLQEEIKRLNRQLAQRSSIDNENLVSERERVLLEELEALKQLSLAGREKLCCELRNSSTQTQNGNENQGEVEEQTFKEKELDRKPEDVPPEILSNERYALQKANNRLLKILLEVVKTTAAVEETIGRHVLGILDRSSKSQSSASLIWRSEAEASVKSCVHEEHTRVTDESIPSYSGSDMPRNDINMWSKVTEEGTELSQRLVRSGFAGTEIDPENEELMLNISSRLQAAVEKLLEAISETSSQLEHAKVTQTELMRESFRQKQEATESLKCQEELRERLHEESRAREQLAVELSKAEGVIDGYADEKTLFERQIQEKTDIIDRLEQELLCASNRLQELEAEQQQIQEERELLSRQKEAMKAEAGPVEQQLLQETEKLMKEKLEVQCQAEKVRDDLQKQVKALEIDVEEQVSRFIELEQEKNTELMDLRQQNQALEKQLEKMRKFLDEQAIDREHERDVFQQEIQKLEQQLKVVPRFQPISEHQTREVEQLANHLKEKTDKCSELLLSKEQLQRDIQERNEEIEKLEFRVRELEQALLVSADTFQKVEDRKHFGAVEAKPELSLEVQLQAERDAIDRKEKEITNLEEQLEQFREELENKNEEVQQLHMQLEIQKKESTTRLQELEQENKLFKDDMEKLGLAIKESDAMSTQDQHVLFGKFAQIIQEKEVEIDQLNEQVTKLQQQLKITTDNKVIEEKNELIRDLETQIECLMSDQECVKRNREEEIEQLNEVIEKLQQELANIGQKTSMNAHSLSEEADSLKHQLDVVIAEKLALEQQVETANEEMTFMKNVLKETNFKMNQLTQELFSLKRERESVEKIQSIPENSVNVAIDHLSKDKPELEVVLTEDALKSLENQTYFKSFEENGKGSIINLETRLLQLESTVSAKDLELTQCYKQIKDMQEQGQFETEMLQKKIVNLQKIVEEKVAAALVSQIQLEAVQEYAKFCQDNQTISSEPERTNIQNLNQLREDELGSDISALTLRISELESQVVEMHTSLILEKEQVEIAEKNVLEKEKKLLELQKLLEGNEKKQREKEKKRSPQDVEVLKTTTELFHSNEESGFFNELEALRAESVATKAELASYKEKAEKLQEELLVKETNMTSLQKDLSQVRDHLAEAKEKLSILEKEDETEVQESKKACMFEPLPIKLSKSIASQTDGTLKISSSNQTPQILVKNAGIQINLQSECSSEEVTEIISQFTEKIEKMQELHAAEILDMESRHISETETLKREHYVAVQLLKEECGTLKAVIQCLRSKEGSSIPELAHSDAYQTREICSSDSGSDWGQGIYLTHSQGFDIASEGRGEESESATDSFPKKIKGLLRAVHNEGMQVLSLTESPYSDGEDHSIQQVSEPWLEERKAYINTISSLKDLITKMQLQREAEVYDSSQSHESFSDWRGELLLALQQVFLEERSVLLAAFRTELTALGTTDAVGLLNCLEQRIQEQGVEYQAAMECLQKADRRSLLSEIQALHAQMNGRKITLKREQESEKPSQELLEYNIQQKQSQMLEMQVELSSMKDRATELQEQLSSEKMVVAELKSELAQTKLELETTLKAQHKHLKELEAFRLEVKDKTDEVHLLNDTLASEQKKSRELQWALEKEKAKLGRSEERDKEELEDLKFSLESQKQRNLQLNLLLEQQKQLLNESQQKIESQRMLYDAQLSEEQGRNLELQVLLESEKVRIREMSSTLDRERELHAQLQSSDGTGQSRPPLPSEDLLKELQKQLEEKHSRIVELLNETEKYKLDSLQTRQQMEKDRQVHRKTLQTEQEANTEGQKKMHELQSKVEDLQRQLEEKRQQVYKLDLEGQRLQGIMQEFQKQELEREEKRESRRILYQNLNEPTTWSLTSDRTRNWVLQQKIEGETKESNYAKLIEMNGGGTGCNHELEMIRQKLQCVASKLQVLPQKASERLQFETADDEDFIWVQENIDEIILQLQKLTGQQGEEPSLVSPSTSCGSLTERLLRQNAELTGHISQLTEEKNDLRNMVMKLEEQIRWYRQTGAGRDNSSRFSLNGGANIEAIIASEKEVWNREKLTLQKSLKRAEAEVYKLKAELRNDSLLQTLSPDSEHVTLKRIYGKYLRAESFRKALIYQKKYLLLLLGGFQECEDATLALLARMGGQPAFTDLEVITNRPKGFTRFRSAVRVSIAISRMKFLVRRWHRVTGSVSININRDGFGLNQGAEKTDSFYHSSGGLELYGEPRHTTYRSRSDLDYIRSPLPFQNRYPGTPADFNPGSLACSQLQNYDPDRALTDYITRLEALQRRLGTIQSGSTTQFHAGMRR
UniProt Q9H9F9, whole entry, looked up: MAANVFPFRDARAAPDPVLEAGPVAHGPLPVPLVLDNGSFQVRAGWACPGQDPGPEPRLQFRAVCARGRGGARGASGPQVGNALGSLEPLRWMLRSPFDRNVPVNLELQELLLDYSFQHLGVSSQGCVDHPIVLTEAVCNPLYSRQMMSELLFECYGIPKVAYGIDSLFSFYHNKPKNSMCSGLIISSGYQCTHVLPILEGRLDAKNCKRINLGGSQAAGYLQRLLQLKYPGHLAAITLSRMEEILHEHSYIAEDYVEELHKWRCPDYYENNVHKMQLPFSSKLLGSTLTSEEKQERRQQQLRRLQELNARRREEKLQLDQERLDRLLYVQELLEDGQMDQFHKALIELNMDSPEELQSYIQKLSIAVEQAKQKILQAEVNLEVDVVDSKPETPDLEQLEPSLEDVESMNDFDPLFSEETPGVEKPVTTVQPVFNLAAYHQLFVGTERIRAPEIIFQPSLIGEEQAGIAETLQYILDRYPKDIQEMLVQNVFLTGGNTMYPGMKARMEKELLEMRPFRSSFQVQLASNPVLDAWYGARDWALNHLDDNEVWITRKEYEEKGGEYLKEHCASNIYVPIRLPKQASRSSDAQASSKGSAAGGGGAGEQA
UniProt Q99943: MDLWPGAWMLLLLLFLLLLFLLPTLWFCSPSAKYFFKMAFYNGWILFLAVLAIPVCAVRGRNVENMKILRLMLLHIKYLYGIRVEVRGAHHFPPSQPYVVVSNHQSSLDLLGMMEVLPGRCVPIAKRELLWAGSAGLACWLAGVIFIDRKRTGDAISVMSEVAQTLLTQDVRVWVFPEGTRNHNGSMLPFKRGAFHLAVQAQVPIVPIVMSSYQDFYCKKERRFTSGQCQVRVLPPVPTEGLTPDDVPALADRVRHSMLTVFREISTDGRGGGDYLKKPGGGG

Compound in test [1]: ClCC(=O)N[C@@H]1CCCc2ccccc12
Kind of test: log2 mean competition ratio of IA-DTB cysteine labelling (DMSO/compound) (log2 ratio); higher = stronger cysteine engagement by compound. The settings on record: treatment time: 4 h, cell line lysate: HEK293T. The protocol: (§1)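 IA-DTB competitive cysteine chemoproteomics in HEK293T RIPA lysate. Lysates were treated with compound 29 or 30 at 50 or 200 µM for 4 h, then IA-DTB (500 µM, 1 h), trypsin-digested, NeutrAvidin-enriched and analysed by diaPASEF. Competition ratio = intensity DMSO / intensity compound (n=4 treated, n=64 DMSO); binding: mean log2 CR ≥ 1 and p ≤ 0.05 plus QC filters. Target is the cysteine site.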

Compound in test [2]: ClCC(=O)N[C@H]1CCCc2ccccc12
The description is as above. Particulars: treatment time: 4 h, cell line lysate: HEK293T. The protocol:
as §1

The list shows a part of the results. The data scatter; read single values as rough.

Turning to ACSF2 C194 (UniProt Q96CM8), the “log2 mean competition ratio” value is -0.46 in test [1] (50 µM), -0.102 in test [1] (200 µM), 0.0547 in test [2] (50 µM) and -0.115 in test [2] (200 µM).
For AKAP9 C3521 (UniProt Q99996) the same measures were -0.225, -0.463, 0.151 and -0.465.
For ACTR5 C265 (UniProt Q9H9F9) the same measures were 0.214, 0.355, -0.0959 and 0.221.
For AGPAT1 C229 (UniProt Q99943) the same measures were -0.081, 0.113, -0.0448 and 0.0833.
